According to US20160185837A1 (Medimmune Limited, priority 2013, published 2016):
For at least one compound, name, drawing or mass did not settle the structure.

Test system: cyno GCGr (cGCGr)
Assay: cAMP assay, cells expressing cyno GCGr, 4.2% cyno serum albumin
Assay type: cell-based, cynomolgus monkey
Details: culture medium containing 4.2% cyno serum albumin
Excerpt: In certain aspects, the assay can also be carried out in medium supplemented with serum albumin that corresponds to the receptor being tested, e.g., human serum albumin for testing cAMP activity at hGIPr or hGLP-1r, rat serum albumin for testing cAMP activity at rGIPr or rGLP-1r, and so on. Low protein binding 384-well plates (Greiner #781280) were used to perform eleven 1 in 5 serial dilutions of test samples that were made in assay medium. All sample dilutions were made in duplicate.
A frozen cryo-vial of cells expressing the receptor of interest was thawed rapidly in a water-bath, transferred to pre-warmed assay media and spun at 240×g for 5 minutes. Cells were re-suspended in assay buffer at an optimized concentration (e.g., hGLP-1r and hGIPr cells at 0.5×10^5 cells/ml). […]
cAMP levels were measured using a commercially available cAMP dynamic 2 HTRF kit (Cisbio, Cat #62AM4PEJ), following the two step protocol as per manufacturer's recommendations. […] Plates were incubated at room temperature for one hour and then read on an Envision (Perkin Elmer) using excitation wavelength of 320 nm and emission wavelengths of 620 nm & 665 nm. Data was transformed to % Delta F as described in manufacturer's guidelines and then transformed to percent activation of maximal native agonist response and analysed by 4-parameter logistic fit to determine EC50 values.

Structure (SMILES): CCCCCCCCCCCCCCCC(=O)N[C@@H](CCC(=O)NCCCC[C@H](NC(=O)[C@H](C)NC(=O)[C@H](C)NC(=O)[C@H](CCC(N)=O)NC(=O)CNC(=O)[C@H](CCC(=O)O)NC(=O)[C@H](CC(C)C)NC(=O)[C@H](Cc1ccc(O)cc1)NC(=O)[C@H](CO)NC(=O)[C@H](CO)NC(=O)[C@@H](NC(=O)[C@H](CC(=O)O)NC(=O)[C@H](CO)NC(=O)[C@@H](NC(=O)[C@H](Cc1ccccc1)NC(=O)[C@@H](NC(=O)CNC(=O)[C@H](CCC(=O)O)NC(=O)[C@H](C)NC(=O)[C@@H](N)Cc1cnc[nH]1)[C@@H](C)O)[C@@H](C)O)C(C)C)C(=O)N[C@@H](CCC(=O)O)C(=O)N[C@@H](Cc1ccccc1)C(=O)N[C@H](C(=O)N[C@@H](C)C(=O)N[C@@H](Cc1c[nH]c2ccccc12)C(=O)N[C@@H](CC(C)C)C(=O)N[C@H](C(=O)N[C@@H](CCCNC(=N)N)C(=O)NCC(=O)N[C@@H](CCCNC(=N)N)C(=O)NCC(=O)O)C(C)C)[C@@H](C)CC)C(=O)O [liraglutide]
- EC50: > 1000 nM
